Experimental data: publication PMC7002697
These are yes or no findings as the source states them, for the method shown. Binding calls can cover weak binding; strength is not graded here.

The chains behind the UniProt entries cited, without tags or fusion partners. Where a name states a change or a piece, a line headed by the entry shows the natural chain unless it says otherwise.
UniProt P72839: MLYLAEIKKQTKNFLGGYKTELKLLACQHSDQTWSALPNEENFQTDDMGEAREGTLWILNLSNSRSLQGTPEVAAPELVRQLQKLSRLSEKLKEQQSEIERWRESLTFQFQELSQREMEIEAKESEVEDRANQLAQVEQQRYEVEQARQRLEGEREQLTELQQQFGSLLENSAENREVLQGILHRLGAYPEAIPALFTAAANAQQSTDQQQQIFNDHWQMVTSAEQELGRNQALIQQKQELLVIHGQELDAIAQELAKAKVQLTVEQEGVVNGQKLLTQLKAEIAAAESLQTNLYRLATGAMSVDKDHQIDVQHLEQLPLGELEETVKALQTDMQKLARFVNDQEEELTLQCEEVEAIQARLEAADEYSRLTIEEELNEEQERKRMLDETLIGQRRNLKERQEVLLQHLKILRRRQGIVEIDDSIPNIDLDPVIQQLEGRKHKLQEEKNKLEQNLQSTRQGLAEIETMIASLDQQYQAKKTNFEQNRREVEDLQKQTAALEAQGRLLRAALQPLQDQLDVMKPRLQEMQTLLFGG

Experiments:
Test in all cases: two-hybrid; BACTH (Euromedex) in E. coli BTH101; C- and N-terminal fusions to T25 or T18; beta-galactosidase assays (Miller units) from three colonies, grown over night at 30 °C or 2 d at 20 °C
[1] = target: HmpFSyn (Slr1301) (Synechocystis sp. PCC 6803) (UniProt P72839)
[2] = target: T1, HmpFSyc (Synpcc7942_1139) (Synechococcus elongatus PCC 7942) (UniProt Q31P50)
T1 sequence: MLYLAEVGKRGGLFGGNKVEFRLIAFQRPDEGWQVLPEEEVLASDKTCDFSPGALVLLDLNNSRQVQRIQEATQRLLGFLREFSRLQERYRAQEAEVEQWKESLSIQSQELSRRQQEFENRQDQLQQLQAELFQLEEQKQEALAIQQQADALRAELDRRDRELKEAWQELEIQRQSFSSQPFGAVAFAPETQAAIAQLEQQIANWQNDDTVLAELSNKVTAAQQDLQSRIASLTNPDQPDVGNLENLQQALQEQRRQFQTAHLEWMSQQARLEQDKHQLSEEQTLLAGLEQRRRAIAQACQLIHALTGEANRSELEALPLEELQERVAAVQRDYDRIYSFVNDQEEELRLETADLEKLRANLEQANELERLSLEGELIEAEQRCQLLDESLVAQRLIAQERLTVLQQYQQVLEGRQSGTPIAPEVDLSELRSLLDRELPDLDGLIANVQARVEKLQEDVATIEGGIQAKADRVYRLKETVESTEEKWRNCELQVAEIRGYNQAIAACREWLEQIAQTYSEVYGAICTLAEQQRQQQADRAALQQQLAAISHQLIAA

HmpFAna = target: HmpFAna

Slr7083 (from UniProt Q6ZEB5)
binding [1]: binds

HmpFSyn (Slr1301) (from UniProt P72839)
binding [2]: binds

B1: HmpFSyc (Synpcc7942_1139) (protein, UniProt Q31P50 1-556)
chain: T1 sequence
binding (HmpFAna): binds
